Reference: article PMC10399710
These are yes or no findings as the source states them, for the method shown. Binding seen in cells or lysates may run through a third protein. Some binding calls cover weakened binding; strength is not graded here. Blank lines part the entries; values can stand above or below the substance they belong to.

The chains behind the UniProt entries cited, without tags or fusion partners. Where a name states a change or a piece, a line headed by the entry shows the natural chain unless it says otherwise. Residues count along the entry.
UniProt P04233: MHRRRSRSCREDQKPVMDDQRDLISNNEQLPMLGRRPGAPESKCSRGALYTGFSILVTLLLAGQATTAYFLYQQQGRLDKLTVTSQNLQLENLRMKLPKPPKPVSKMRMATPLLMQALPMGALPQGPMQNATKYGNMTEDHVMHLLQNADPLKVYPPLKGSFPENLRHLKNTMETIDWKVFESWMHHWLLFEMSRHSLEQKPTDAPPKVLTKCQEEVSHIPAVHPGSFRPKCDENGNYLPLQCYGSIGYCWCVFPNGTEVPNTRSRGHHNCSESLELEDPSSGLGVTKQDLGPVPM
UniProt P01033, residues 24-207: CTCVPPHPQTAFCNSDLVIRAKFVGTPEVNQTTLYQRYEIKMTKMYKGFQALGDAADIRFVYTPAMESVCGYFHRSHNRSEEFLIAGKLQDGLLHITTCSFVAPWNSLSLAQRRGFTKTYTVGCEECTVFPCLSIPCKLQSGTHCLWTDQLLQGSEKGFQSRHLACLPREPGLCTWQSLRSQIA

Legend:
[1] = target: MHC class II‐associated invariant chain γ (CD74), endogenous in MDA‐MB‐231 cells (human (endogenous in MDA‐MB‐231)) (UniProt P04233); assay: proximity ligation; Duolink in situ PLA in fixed MDA-MB-231 cells under standard growth conditions (also after IFNγ; signal lost after CD74 siRNA); proximity < 40 nm
[2] = target: MHC class II‐associated invariant chain γ (CD74), endogenous in MDA‐MB‐231 cells (human (endogenous in MDA‐MB‐231)) (UniProt P04233); assay: proximity ligation; Duolink in situ PLA in fixed MDA-MB-231 cells after addition of rTIMP-1 (5 μg/mL); proximity < 40 nm; only the binder purified
[3] = target: MHC class II‐associated invariant chain γ (CD74), endogenous in MDA‐MB‐231 cells (human (endogenous in MDA‐MB‐231)) (UniProt P04233); assay: co-IP; MDA-MB-231 cells incubated with rTIMP-1 for 15 min, washed, lysed; CD74 precipitated with LN-2 antibody-coupled Dynabeads (1 h, 4 °C), TIMP-1 detected by blot (VT-7); IgG1 beads as control; only the binder purified
[4] = target: his6‐tagged human recombinant TIMP‐1 protein (rTIMP‐1) (human) (UniProt P01033); assay: co-IP; MDA-MB-231 cells incubated with rTIMP-1 for 15 min, washed, lysed; TIMP-1 precipitated with VT-4 antibody-coupled Dynabeads (1 h, 4 °C), CD74 detected by blot (LN-2); IgG1 beads as control; only the target purified

binding [1]: binds
Substance: TIMP‐1, endogenous in MDA‐MB‐231 cells (from UniProt P01033 24-207)

binding [2]: binds
binding [3]: binds
Substance: his6‐tagged human recombinant TIMP‐1 protein (rTIMP‐1) (from UniProt P01033 24-207)

binding [4]: binds
Substance: MHC class II‐associated invariant chain γ (CD74), endogenous in MDA‐MB‐231 cells (from UniProt P04233 1-296)
